# No constants are given. Whether binding was seen depends on the method and setting. In cells and extracts the contact can be indirect. Binding calls can cover weak binding; strength is not graded here.
# Experiments:
# [1] = target: AtLORE-ECD-TMD (AtLORE truncation lacking the intracellular domain) (Arabidopsis thaliana); assay: FRET or BRET
# [2] = target: AtLORE-TMD-ICD-Km (AtLORE truncation lacking the extracellular domain, kinase-mutated) (Arabidopsis thaliana); assay: FRET or BRET
# [3] = target: AtLORE-ECD-TMD (AtLORE truncation lacking the intracellular domain) (Arabidopsis thaliana); assay: co-IP
# [4] = target: AtLORE-ICD-Km (cytosolic intracellular domain of AtLORE, kinase-mutated) (Arabidopsis thaliana); assay: co-IP
# [5] = target: AtLORE-TMD-ICD-Km (AtLORE truncation lacking the extracellular domain, kinase-mutated) (Arabidopsis thaliana); assay: co-IP
binder,measurement,setting,value
"AtLORE-Km (kinase-mutated AtLORE, K516A in the conserved ATP binding site), full length (receptor, UniProt O64782 22-805) AINTSSPLSIRQTLSSPGGFYELGFFSPNNTQNQYVGIWFKKIVPRVVVWVANRDTPVTSSAANLTISSNGSLILLDGKQDVIWSTGKAFTSNKCHAELLDTGNFVVIDDVSGNKLWQSFEHLGNTMLPQSSLMYDTSNGKKRVLTTWKSNSDPSPGEFSLEITPQIPTQGLIRRGSVPYWRCGPWAKTRFSGISGIDASYVSPFSVVQDTAAGTGSFSYSTLRNYNLSYVTLTPEGKMKILWDDGNNWKLHLSLPENPCDLYGRCGPYGLCVRSDPPKCECLKGFVPKSDEEWGKGNWTSGCVRRTKLSCQAKSSMKTQGKDTDIFYRMTDVKTPDLHQFASFLNAEQCYQGCLGNCSCTAFAYISGIGCLVWNGELADTVQFLSSGEFLFIRLASSELAGSSRRKIIVGTTVSLSIFLILVFAAIMLWRYRAKQNDAWKNGFERQDVSGVNFFEMHTIRTATNNFSPSNKLGQGGFGPVYKGKLVDGKEIGVARLASSSGQGTEEFMNEITLISKLQHRNLVRLLGYCIDGEEKLLIYEFMVNKSLDIFIFDPCLKFELDWPKRFNIIQGIARGLLYLHRDSRLRVIHRDLKVSNILLDDRMNPKISDFGLARMFQGTQYQDNTRRVVGTLGYMSPEYAWAGLFSEKSDIYSFGVLMLEIISGKRISRFIYGDESKGLLAYTWDSWCETGGSNLLDRDLTDTCQAFEVARCVQIGLLCVQHEAVDRPNTLQVLSMLTSATDLPVPKQPIFAVHTLNDMPMLQANSQDFLSVNEMTESMIQGR",binding,[1],binds
same,binding,[2],binds
same,binding,[3],binds
same,binding,[4],binds weakly
same,binding,[5],binds

# Source: article doi:10.1101/2021.09.27.461997
